Screening data

Data taken from PubChem BioAssay AID1159506, deposited by NCATS (2015).

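Luminescence from an EWS-FLI1 target-promoter (NR0B1) reporter, set against a CMV-promoter reporter, two days after silencing single genes in TC32 Ewing sarcoma cells. Each siRNA was applied at 20 nM. A z-score of the log NR0B1-over-CMV signal, less the median of siRNAs with the same seed; more negative means a stronger specific loss of the NR0B1 reporter.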

This is part of the screen; most of the strongest results are not listed here. Sequences are the guide (antisense) strand, without overhang.

For UCUUGAUUUUGGAUAGAUC against CD109 the result was seed-corrected z-score 0.7787. UCUGUUACCAGGAAGACGA against GPAA1 read seed-corrected z-score 0.1664. Result for UUGCCGAUAUCAAUUUUGG against RPL6P1 was seed-corrected z-score -0.1225. Result for ACUCGGAUCAGCACAUACU against PHPT1 was seed-corrected z-score 0.09797. For UUAAUGCCGACAAAGAUCA against CYCS the result was seed-corrected z-score -0.03473. With CACAAUGCCACGCUUCUGC against INS the assay gave seed-corrected z-score 0.7783.

UCCAUGUCCGUAAUCAUAG against KHDRBS3 read seed-corrected z-score -0.503. Result for UUCACUACCGUCGCUAUGU against STK32B was seed-corrected z-score 0.4634. UCAUCGUUCAGGUAGUUGG against U2AF2 gave seed-corrected z-score -0.9492. With UGAUCUCCAAGCCGAAUUC against ARHGEF25 the assay gave seed-corrected z-score -0.01061. For AACCAGAACAGUAAUCCCG against VAMP3 the result was seed-corrected z-score 0.3784. AAGAGUAUCAAAUUUAAGC against RABEPK read seed-corrected z-score 0.2584.

For UACGUAUCUUGUUUCAGUC against MAK16 the result was seed-corrected z-score -0.2084. AAAGGUUUCUCACAUUUUU against IL11 gave seed-corrected z-score 1.385. UGAUUUCUGACUACUUUGC against RPS26P40 read seed-corrected z-score 1.873. Result for UGAUUUAACAAUGCCGUUC against ARPP21 was seed-corrected z-score 0.934. For UAAUUUCCUGCAGAGAAGC against PIGL the result was seed-corrected z-score 0.8926. UCUGGUACCGUUCUUCAUC against EPHA1 read seed-corrected z-score -0.2287.

UCUGAUUAAAGUCUUUGCC against ZNF888 read seed-corrected z-score 0.1098. With AACUAGAUACGAACAGGGU against C10orf55 the assay gave seed-corrected z-score -0.03616. Result for UCAAUAGCCCUAGACCUGC against OR2L13 was seed-corrected z-score -0.6747. UAAUUCGUGAAAUACUUCC against HERC4 read seed-corrected z-score 0.2239. UAACGGUCCUUCAUGUCCU against EXD3 read seed-corrected z-score 0.4877. For UUCUUGAAAGGUGCCUCGG against SULT4A1 the result was seed-corrected z-score 0.7968.

UCUAUCAUAAUACAGAGCC against TSPAN12 gave seed-corrected z-score 0.05324. With UAAAUAGGUAGAGUACAGC against SLC5A11 the assay gave seed-corrected z-score -0.06526. AAAAGAAAUAAGACUAAGC against OR4D10 read seed-corrected z-score 0.003255. UAAGUUGUGACGAUAGGUU against ZNF492 gave seed-corrected z-score -1.052. UUUUGAAUAACUGAAUCCC against EVI2A gave seed-corrected z-score 0.8028. UACCUGGCCACCGAAGACU against FUT6 gave seed-corrected z-score -0.1703.

Result for UUUCUUCAGGCUAAAAGCC against PRDM5 was seed-corrected z-score -1.592. For UUCAUUUCACUUCUGCGUC against DEFB1 the result was seed-corrected z-score 1.989. UUGCGCACUAGGUUUGCCC against LOC730098 gave seed-corrected z-score -0.8464. UAGGUCAUAAAGCAGUUCG against KIF20A read seed-corrected z-score 0.1529. With UUUGGAAAUACGGGUUGCG against TSPYL5 the assay gave seed-corrected z-score 1.057.

Once more, the final 2:

| strand | gene | seed-corrected z-score |
|---|---|---|
| `UAGGUCAUAAAGCAGUUCG` | KIF20A | 0.1529 |
| `UUUGGAAAUACGGGUUGCG` | TSPYL5 | 1.057 |